# Measurements: PubChem BioAssay AID493014 (National Center for Advancing Translational Sciences (NCATS), 2011)
# In all, about 340,000 compounds went through this assay and about 170 (0.05%) were called active. Inconclusive results, whose numbers are uncertain, are shown with a selection of clear calls. Calls come from the whole dose curve; as a rule, active = well fitted inhibition curve with a large enough effect in the signal ratio, with a control signal flat (not every such curve was filed as active); inconclusive = small, poorly fitted or top-dose-only effect, or effect the other way, or a change in a side signal; inactive = flat fitted curve, though single readings scatter; the % refers to the signal ratio. Potencies of inconclusive entries are doubtful fits and often do not repeat.
# Assay: qHTS Assay to Find Inhibitors of Chronic Active B-Cell Receptor Signaling;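 for activity change, negative = inhibition: plate controls were basal doxycycline-induced cells for no effect and cells given 10 µM MG132 for full effect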
# Details: ABC-DLBCL IkBa-CBG/CBR reporter, luminescence ratio (green luciferase fused to IkBa over red control in TMD8 lymphoma cells), 4 h; activity change, negative = inhibition: at 46.1 µM (top of the series) unless noted
# Procedure, shortened: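 Cell line TMD8 (human ABC DLBCL), stably expressing tet-inducible CBG68-IkBa fusion and CBR; IMDM/0.5% FBS; cpd up to 46 uM; dox induction, 4 h, 37C/5% CO2; dual luminescence; green/red ratio; MG132 control.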
# Potency is the fitted concentration of half-maximal effect.
SMILES,"activity change, negative = inhibition",Potency
O=C(Nc1cccc(Cl)c1)C1COc2ccccc2O1 (centres undefined),inconclusive: 6.55%,
O=C(Nc1ccc(O)cc1)c1c(O)c2c([nH]c1=O)CCCC2,inactive: -2.93%,
COCCCNC(=O)/C(C#N)=C/c1cccc(NC(=O)c2ccccc2Cl)c1,,"inconclusive: 25.9 µM [cytotoxic, partial curve]"
S=C1NC[C@H](Cc2cccc3ccccc23)N1CC1CCCCC1,inactive: -9.49%,
COc1ccc(CNC(=O)C(c2ccncc2)N(C(=O)Cc2cccs2)c2ccc(C)cc2)cc1 (centres undefined),inconclusive: -5.85%,
COc1ccc(NC(=O)CCOc2ccc(C)cc2)cc1S(=O)(=O)N1CCCCC1,inconclusive: 1.19%,
Cc1cc(C)n(-c2ccc(Cl)c(C(=O)OCC(N)=O)n2)n1,inconclusive: 26%,
CCSC1=C(C#N)C(c2cccs2)C(C(=O)OC)=C(C)N1 (centres undefined),inactive: -1.1%,
CCCOc1ccc(-c2nc(-c3ccc(N)cc3)cs2)cc1,inconclusive: 10.3%,
CC1=C(C(=O)Nc2ccccc2)C(c2ccc(C(=O)O)cc2)n2nc(SCC(=O)c3ccc(C)cc3)nc2N1 (centres undefined),inconclusive: -25.4%,
O=c1c2ccccc2ncn1CCCCOc1ccccc1F,inconclusive: 13.6%,
CCC(NC(=O)CCc1c(C)c2cc3c(-c4ccccc4)coc3cc2oc1=O)C(=O)O (centres undefined),inactive: 3.72%,
Cc1ccc2nc(SCC(=O)Nc3cc(C(F)(F)F)ccc3N3CCOCC3)[nH]c2c1,,"inconclusive: 5.17 µM [falling, full curve]"
C=CCSc1nc2sc(C)c(C)c2c(=O)n1N,inconclusive: 6.93%,
CS(=O)(=O)c1ccccc1COC(=O)Nc1ccc(Cl)cc1,inconclusive: -6.48%,
COc1ccc(C(OCC(O)CN(C)C2CCCCC2)c2ccc(OC)cc2)cc1 (centres undefined),,"inconclusive: 28.2 µM [falling, single point]"
CC(C)Oc1ccc(OCCCN2CCCCCC2)cc1,inactive: -6.01%,
NCCCCCc1nnc(SC/C=C/c2ccccc2)o1,inconclusive: 5.69%,
CC1=CC(C)(C)N(S(=O)(=O)c2ccc(F)cc2)c2ccc(C)cc21,,"inconclusive: 29.1 µM [falling, single point]"
Cc1ccc(-n2ncc3c(NNC(=O)c4ccccc4C)ncnc32)cc1,inconclusive: 7.78%,
O=C(N/N=C/c1ccccc1O)c1ccc2c(c1)OCO2,,"inconclusive: 31.6 µM [rising, partial curve]"

SMILES,"activity change, negative = inhibition",Potency
Cc1ccc(NC(=O)c2cccs2)cc1S(=O)(=O)Nc1cccc(Cl)c1,,"inconclusive: 20.6 µM [falling, partial curve]"
O=C(CCl)N=c1sccn1Cc1ccc(Cl)cc1Cl,inconclusive: -2.3%,
CCOc1cccc2cc(C(=O)NCc3ccc(C)cc3)c(=N)oc12,inactive: 1.92%,
Cn1cc(CNCCCn2ncc3ccccc32)c(-c2ccccc2F)n1,inactive: 2.2%,
O=C(NCc1nc(-c2ccccc2)no1)c1cccs1,inconclusive: 1.86%,
COc1ccc(/C=C/C(=O)c2ccc[nH]2)c(OC)c1OC,inactive: -24.9%,
CC(CN1CCN(C)CC1)OC(=O)c1ccccc1Cl (centres undefined),inactive: 4.95%,
O=C(NCc1cccc(F)c1)c1cccc2c1C(=O)c1ccc(Cl)cc1S2(=O)=O,inconclusive: 1.23%,
O=C1c2ccccc2NC2(CCCCC2)N1N=C1CCCCC1,inactive: -5.14%,
N#CC1(C#N)C(C(N)=O)C1c1ccccc1 (centres undefined),inconclusive: 3.37%,
C=C(C)Cn1c(N(CCO)Cc2ccccc2)nc2c1c(=O)[nH]c(=O)n2C,inconclusive: -3.1%,
ClCc1nnc(-c2ccccc2)o1,,"inconclusive: 18.4 µM [falling, partial curve, poor fit]"
Cn1cc(CCC(=O)N2CCCC(C(=O)c3ccc(C(C)(C)C)cc3)C2)cn1 (centres undefined),inconclusive: -0.613%,
CCc1nnc(N2C(=N)SCC2=O)s1,inconclusive: 12.5%,
Cc1nc2c(C#N)c(-c3ccc(Cl)cc3)ccn2n1,inconclusive: 4.68%,
O=S(=O)(c1cccc2c(S(=O)(=O)N3CCCC3)cccc12)N1CCCC1,inconclusive: -8.28%,
CCC1=NN2C(=N)/C(=C\c3cccn3-c3ccc(C)c(C)c3)C(=O)N=C2S1,inconclusive: 8.66%,
Cc1ccc(O)c(C2=Nc3ccccc3N=C(c3ccco3)C2)c1,inactive: 2.95%,
CC1CCc2c(sc(NC(=O)c3cccn3C)c2C(N)=O)C1 (centres undefined),,"inconclusive: 16.4 µM [falling, partial curve]"
CN(C)S(=O)(=O)c1ccc(NC(=S)NC(=O)Cc2ccccc2)cc1,inconclusive: -0.0233%,
COc1ccc(C(=O)N(CC2CCCO2)C(C(=O)NC2CCCC2)c2ccc(Cl)cc2)cc1OC (centres undefined),inactive: 0.218%,

SMILES,"activity change, negative = inhibition",Potency
CN(Cc1ccccc1)C(=O)COC(=O)c1cc(=O)[nH]c2ccccc12,inconclusive: 3.6%,
Cc1occc1C(=O)O/N=C(\N)c1ccc(Cl)cc1,,"inconclusive: 22.4 µM [falling, single point]"
Nc1cc(=O)[nH]c(SCC(=O)N2CCc3ccccc3C2)n1,inconclusive: -1.66%,
Cc1ccccc1C(=O)NNc1ncnc2c1cnn2C,inactive: -0.31%,
CCS(=O)(=O)N1CCC(C(=O)NCc2cccs2)CC1,inconclusive: 1.79%,
Nc1c(-c2ccc(Cl)cc2)nnn1-c1ccccc1,,"inconclusive: 20.6 µM [falling, single point]"
Cn1cc(S(=O)(=O)N2CCN(c3ccc(F)cc3)CC2)c(=O)n(C)c1=O,,"inconclusive: 29.1 µM [falling, single point]"
CC(C)(C)c1ccc(/C=N/NC(=O)C2CCCC2)cc1,inconclusive: 6.97%,
O=C(CS(=O)(=O)c1ccccc1)Nc1nnc(C(F)(F)F)s1,,"inconclusive: 25.1 µM [falling, partial curve]"
Cc1nc2ccc(NC(=O)c3ccccc3)cc2s1,,"inconclusive: 22.4 µM [falling, single point]"
O=C(CCc1nc2ccccc2c(=O)[nH]1)NNC(=O)c1ccc(F)cc1,inactive: -6.37%,
CCOc1ccc(C(NC(=O)/C=C/c2ccco2)c2ccc(OC)c(OC)c2)cc1 (centres undefined),inactive: -8.05%,
CCCn1c(COc2ccccc2)nc2ccccc21,inconclusive: -17.5%,
CCc1cc2c(=O)[nH]c(-c3ccncc3)nc2s1,,"inconclusive: 18.4 µM [falling, partial curve, poor fit]"
CSc1ncccc1C(=O)OCC(=O)NC(C)CCc1ccccc1 (centres undefined),inactive: -5.91%,
Cc1c(C(=O)NCCSCc2cccc(C(F)(F)F)c2)cnn1-c1ccc(Cl)cc1,inconclusive: 5.25%,
CC(C)c1ccc(N=c2c([N+](=O)[O-])nn(-c3ccc4c(c3)OCCO4)n2O)cc1,inactive: 6.74%,
COc1ccc(N2CCN(C(=O)Cn3nnc(-c4ccc(OC)c(OC)c4)n3)CC2)cc1,inactive: 2.3%,
CCCN(CCC)Cc1c(C(=O)N/N=C/c2c[nH]c3ccccc23)nnn1-c1nonc1N,inconclusive: -23.4%,
O=C(Nc1ccc(Br)cc1)c1cc2ccccn2n1,,"inconclusive: 15.8 µM [falling, partial curve]"
O=C(CSc1ncnc2scc(-c3ccccc3)c12)NCc1ccc2c(c1)OCO2,inconclusive: -10.7%,

# As a working copy, 24 of the compounds above.
SMILES,"activity change, negative = inhibition",Potency
Cn1cc(CCC(=O)N2CCCC(C(=O)c3ccc(C(C)(C)C)cc3)C2)cn1 (centres undefined),inconclusive: -0.613%,
CCc1nnc(N2C(=N)SCC2=O)s1,inconclusive: 12.5%,
Cc1nc2c(C#N)c(-c3ccc(Cl)cc3)ccn2n1,inconclusive: 4.68%,
O=S(=O)(c1cccc2c(S(=O)(=O)N3CCCC3)cccc12)N1CCCC1,inconclusive: -8.28%,
CCC1=NN2C(=N)/C(=C\c3cccn3-c3ccc(C)c(C)c3)C(=O)N=C2S1,inconclusive: 8.66%,
Cc1ccc(O)c(C2=Nc3ccccc3N=C(c3ccco3)C2)c1,inactive: 2.95%,
CC1CCc2c(sc(NC(=O)c3cccn3C)c2C(N)=O)C1 (centres undefined),,"inconclusive: 16.4 µM [falling, partial curve]"
CN(C)S(=O)(=O)c1ccc(NC(=S)NC(=O)Cc2ccccc2)cc1,inconclusive: -0.0233%,
COc1ccc(C(=O)N(CC2CCCO2)C(C(=O)NC2CCCC2)c2ccc(Cl)cc2)cc1OC (centres undefined),inactive: 0.218%,
CN(Cc1ccccc1)C(=O)COC(=O)c1cc(=O)[nH]c2ccccc12,inconclusive: 3.6%,
Cc1occc1C(=O)O/N=C(\N)c1ccc(Cl)cc1,,"inconclusive: 22.4 µM [falling, single point]"
Nc1cc(=O)[nH]c(SCC(=O)N2CCc3ccccc3C2)n1,inconclusive: -1.66%,
Cc1ccccc1C(=O)NNc1ncnc2c1cnn2C,inactive: -0.31%,
CCS(=O)(=O)N1CCC(C(=O)NCc2cccs2)CC1,inconclusive: 1.79%,
Nc1c(-c2ccc(Cl)cc2)nnn1-c1ccccc1,,"inconclusive: 20.6 µM [falling, single point]"
Cn1cc(S(=O)(=O)N2CCN(c3ccc(F)cc3)CC2)c(=O)n(C)c1=O,,"inconclusive: 29.1 µM [falling, single point]"
CC(C)(C)c1ccc(/C=N/NC(=O)C2CCCC2)cc1,inconclusive: 6.97%,
O=C(CS(=O)(=O)c1ccccc1)Nc1nnc(C(F)(F)F)s1,,"inconclusive: 25.1 µM [falling, partial curve]"
Cc1nc2ccc(NC(=O)c3ccccc3)cc2s1,,"inconclusive: 22.4 µM [falling, single point]"
O=C(CCc1nc2ccccc2c(=O)[nH]1)NNC(=O)c1ccc(F)cc1,inactive: -6.37%,
CCOc1ccc(C(NC(=O)/C=C/c2ccco2)c2ccc(OC)c(OC)c2)cc1 (centres undefined),inactive: -8.05%,
CCCn1c(COc2ccccc2)nc2ccccc21,inconclusive: -17.5%,
CCc1cc2c(=O)[nH]c(-c3ccncc3)nc2s1,,"inconclusive: 18.4 µM [falling, partial curve, poor fit]"
CSc1ncccc1C(=O)OCC(=O)NC(C)CCc1ccccc1 (centres undefined),inactive: -5.91%,

# Carrying on.

SMILES,"activity change, negative = inhibition",Potency
COCCNC(=O)CSc1nnc(-c2ccc(OC)c(OC)c2)c(-c2ccc(OC)c(OC)c2)n1,,"inconclusive: 5.62 µM [falling, full curve, poor fit]"
Cn1c2c(c(=O)n(C)c1=O)C(c1ccccc1OC(F)F)C1=C(CCCC1=O)N2 (centres undefined),inactive: -3.08%,
O=C(Nc1cccc(C(F)(F)F)c1)c1sc(Cl)nc1C(F)(F)F,inactive: 11.1%,
O=C(Nc1nnc(C2=COCCO2)o1)c1ccc(F)cc1,,"inconclusive: 35.5 µM [cytotoxic, single point]"
COC(=O)c1cc(Cl)c(NC(=O)/C=C/c2ccc(Cl)cc2Cl)cc1OC,inactive: 0.651%,
CCOC(=O)c1c(C)nc(C)c(C(=O)OCC)c1-c1ccccc1,inactive: 9.15%,
COc1ccccc1C(=O)NCCc1nc2ccccc2[nH]1,inconclusive: -19.8%,
Cc1ccc(-c2[nH]c(=O)n3ccncc23)s1,inconclusive: 7.67%,
COc1ccc(-c2cn[nH]c2-c2ccc(OCc3ccc(F)cc3)cc2O)cc1OC,,"inconclusive: 35.5 µM [rising, single point]"
CC(C)(C)c1ccc(CN2C3=NCCCN3c3ccccc32)cc1,,"inconclusive: 23.1 µM [falling, partial curve]"
COc1ccc(NC(=O)Cn2c(=O)n(-c3ccc(Cl)cc3)c(=O)c3c(C)c(C(=O)N(C)C)sc32)cc1Cl,inconclusive: -0.459%,
O=C(C1=C[C@H](c2ccccc2)C[C@H](OCCCCO)O1)N1CCOCC1,inactive: 4.51%,
Cc1cc(C(=O)Nc2ccon2)cs1,inconclusive: 0.373%,
c1ccc2nc(-c3nc4ccccc4o3)ccc2c1,,"inconclusive: 2.06 µM [falling, full curve, poor fit]"
COc1ccc(-c2c[n+](CC(=O)c3ccccc3)c3n2CCCCC3)cc1,,"inconclusive: 6.31 µM [falling, partial curve, poor fit]"
O=C(NC1CC(=O)N(c2ccccc2)C1)C1CCCC1 (centres undefined),inconclusive: 25.3%,
Cc1nn(C)c(Cl)c1S(=O)(=O)N1CCC(CO)(CCc2ccccc2)CC1,,"inconclusive: 0.501 µM [rising, full curve, poor fit]"
Cc1nc(-c2ccccc2)nc2[nH]c(C(C)C)cc(=O)c12,,"inconclusive: 0.146 µM [rising, full curve]"
O=C(CSc1ccc(Cl)cc1)c1ccco1,inactive: 0.0432%,
O=C(Nc1cc2c(cc1Br)OCCO2)c1ccco1,inconclusive: 4.09%,
O=C(c1ccc(C(F)(F)F)cc1)N1CCN(S(=O)(=O)c2ccc3c(c2)OCCCO3)CC1,,"inconclusive: 12.6 µM [falling, partial curve, poor fit]"
